Assay results reported in US7691429B2, “Nutritional supplements containing methylselenocysteine” (iBio, Inc., priority 1998, dated 2010).

Experiments:
B. juncea [1] = experiment: Hydroponic growth: metal uptake into B. juncea shoots (ICP); format: in vivo, Brassica juncea; conditions: dry weight
B. juncea [2] = experiment: Potting mix: metal uptake into B. juncea plants; format: in vivo, Brassica juncea; conditions: metal at 5 g/L in tray water, equimolar citric acid, harvested after 1 week
[3] = metal 0.5 g/L, citric acid equimolar to metal
[4] = metal 2 g/L, citric acid equimolar to metal
[5] = metal 10 g/L, citric acid equimolar to metal, harvested 1 week after treatment
[6] = metal 10 g/L, no citric acid, harvested 1 week after treatment
[7] = metal 0.1 g/L, citric acid equimolar to metal

Row | SMILES | metal content of plant shoots (B. juncea [1]; [3]) | metal content of plant shoots (B. juncea [1]; metal 0.5 g/L, no citric acid) | metal content of plant shoots (B. juncea [1]; [4]) | metal content of plant shoots (B. juncea [1]; metal 2 g/L, no citric acid) | metal content of plant shoots (B. juncea [1]; [5]) | metal content of plant shoots (B. juncea [1]; [6]) | metal content of plant shoots (B. juncea [1]; [7]) | metal content of plant shoots (B. juncea [1]; metal 0.1 g/L, no citric acid) | metal content of plant shoots (B. juncea [1]; metal 1.0 g/L, citric acid equimolar to metal) | metal content of plant shoots (B. juncea [1]; metal 1.0 g/L, no citric acid) | Cr in plant tissue (B. juncea [2]) | Fe in plant tissue (B. juncea [2])
1 | O=S(=O)([O-])[O-].[Mn+2] [Mn, MnSO4] | 950 mg/kg | 4090 mg/kg | 7881 mg/kg | 3557 mg/kg | 15782 mg/kg | 8531 mg/kg | – | – | – | – | – | –
2 | O=[Se](=O)([O-])[O-].[Na+].[Na+] [Se, Na2SeO4] | – | – | – | – | – | – | 537 mg/kg | 754 mg/kg | – | – | – | –
3 | [Cl][Cr]([Cl])[Cl] [Cr, CrCl3] | – | – | – | – | – | – | 0 mg/kg | 0 mg/kg | 4700 mg/kg | 715 mg/kg | 50,900 mg/kg | 357 mg/kg
4 | O=S(=O)([O-])[O-].[Zn+2] [Zn, ZnSO4] | 2626 mg/kg | 2529 mg/kg | 20493 mg/kg | 3854 mg/kg | 34657 mg/kg | 41167 mg/kg | – | – | – | – | – | 663 mg/kg
5 | O=S(=O)([O-])[O-].[Fe+2] [Fe, FeSO4] | 252 mg/kg | 132 mg/kg | 4293 mg/kg | 950 mg/kg | 15545 mg/kg | 27707 mg/kg | – | – | – | – | – | 29,900 mg/kg
